Chains of the proteins cited; added tags and fusions are not shown. A line that says so, or that is headed by a name, gives the form on record, which may keep a tag or linker.
human Ku70 WT + human Ku80 WT, one chain, as listed by the source, chain 1 of 2: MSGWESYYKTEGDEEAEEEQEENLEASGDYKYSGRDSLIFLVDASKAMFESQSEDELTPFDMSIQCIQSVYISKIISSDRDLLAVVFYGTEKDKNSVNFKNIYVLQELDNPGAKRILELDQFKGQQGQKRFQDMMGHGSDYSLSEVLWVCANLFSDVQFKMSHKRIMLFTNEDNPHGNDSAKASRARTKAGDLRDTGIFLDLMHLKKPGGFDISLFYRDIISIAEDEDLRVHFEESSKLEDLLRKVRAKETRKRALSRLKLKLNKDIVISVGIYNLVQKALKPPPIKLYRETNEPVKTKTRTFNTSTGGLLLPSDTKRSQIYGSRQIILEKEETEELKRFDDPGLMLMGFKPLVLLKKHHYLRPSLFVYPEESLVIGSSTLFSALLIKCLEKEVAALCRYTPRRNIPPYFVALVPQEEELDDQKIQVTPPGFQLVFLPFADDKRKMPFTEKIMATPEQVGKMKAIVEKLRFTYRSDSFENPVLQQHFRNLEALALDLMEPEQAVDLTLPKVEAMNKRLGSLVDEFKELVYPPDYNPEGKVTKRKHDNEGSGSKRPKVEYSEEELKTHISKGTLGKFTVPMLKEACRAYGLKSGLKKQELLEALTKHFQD
human Ku70 WT + human Ku80 WT, one chain, as listed by the source, chain 2 of 2: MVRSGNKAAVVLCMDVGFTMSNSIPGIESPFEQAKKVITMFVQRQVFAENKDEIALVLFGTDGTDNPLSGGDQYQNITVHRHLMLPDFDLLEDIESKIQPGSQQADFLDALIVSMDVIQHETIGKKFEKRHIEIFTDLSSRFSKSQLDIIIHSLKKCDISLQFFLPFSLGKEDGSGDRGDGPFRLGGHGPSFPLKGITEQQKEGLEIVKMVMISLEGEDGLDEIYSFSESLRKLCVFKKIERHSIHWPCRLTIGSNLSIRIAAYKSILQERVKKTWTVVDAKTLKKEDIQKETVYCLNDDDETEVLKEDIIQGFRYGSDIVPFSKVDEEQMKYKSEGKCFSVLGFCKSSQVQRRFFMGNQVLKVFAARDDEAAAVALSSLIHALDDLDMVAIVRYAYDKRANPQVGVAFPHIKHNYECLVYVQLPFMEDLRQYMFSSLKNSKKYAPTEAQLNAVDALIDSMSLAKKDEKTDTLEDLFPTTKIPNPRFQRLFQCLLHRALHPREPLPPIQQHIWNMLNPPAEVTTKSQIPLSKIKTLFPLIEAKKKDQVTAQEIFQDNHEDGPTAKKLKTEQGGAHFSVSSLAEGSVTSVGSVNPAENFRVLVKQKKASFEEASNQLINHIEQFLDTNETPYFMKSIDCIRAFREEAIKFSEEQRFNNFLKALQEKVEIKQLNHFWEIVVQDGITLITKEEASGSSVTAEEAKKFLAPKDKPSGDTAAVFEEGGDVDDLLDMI

According to PMC4176175:

Test system: human Ku70 WT + human Ku80 WT
Experiment: EMSA
Settings: 1 nM Ku, 1 nM DNA, 15 min, deoxyuridine at position 2 of strand 1 (no UDG treatment for EMSA), 5' phosphate on strand 1, 5' biotin-TEG on strand 2, EMSA: 1 nM Ku with 1 nM radiolabeled 30 bp DNA, no streptavidin/UDG, recombinant protein, protein details: C-terminal His6, label: 3' 32P-cordycepin on strand 1

“GUGGAAATCAAACGTAAGTAGAATCCAAAGTCT / TAGACTTTGGATTCTACTTACGTTTGATTTC [30 bp EMSA substrate]”: binds.

For at least one entry, the source does not settle the construct or the ends of the probe. At least one verdict was read from the data and is not stated in words by the source.
